PubChem BioAssay AID686937 | Drosophila RNAi Screening Center | 2013
The deposit covers about 23,000 reagents; shown is a random part of those with a known target gene and a result. 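Reduced-secretion tags in replicate 1 do not always agree with the z-scores; no criterion for assigning the tags was given.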 The numbers tell different reagents against one gene apart. Names joined by + are all predicted targets of the reagent. Not given: the amount of reagent.

Assay: 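Genes whose loss weakens secretory pathway function in fly cells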 (primary screen)
Cells: Drosophila S2 cells expressing secreted horseradish peroxidase
Knock-down reagent: long dsRNA against Drosophila genes
Duration: about 5.5 days (5 days dsRNA, then 12 h reporter induction)
Challenge: reporter expression induced after 5 days of dsRNA, read 12 h later; inducer not stated
Read-out: 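Chemiluminescent measurement of peroxidase in the medium 12 h after reporter induction, following 5 days of dsRNA, given as a z-score per plate; higher means more secretion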
Scale: z-score: higher = more reporter secreted into medium

Target gene | reagent no. | z-score, replicate 1 | z-score, replicate 2 | z-score, replicate 3 | z-score, replicate 4 | phenotype, replicate 1
CG33325 | 1 | 0.04 | -0.05 | – | – | –
Nak | 1 | 0.38 | 0.27 | – | – | –
CG10104 | 1 | 0.39 | 0.46 | – | – | –
CG3868 | 1 | 0.44 | 0.51 | – | – | –
CG9953 | 1 | 0.33 | 0.08 | – | – | –
grass | 1 | 0.28 | 0.28 | – | – | –
CG15865 | 1 | 0.14 | 0.11 | – | – | –
ND-49 | 1 | 0.33 | 0.11 | – | – | –
CG3288 | 1 | 0.29 | 0.34 | – | – | –
bves | 1 | -0.22 | 0.15 | – | – | –
bves | 2 | 0.28 | 0.18 | – | – | –
bves | 3 | 0.43 | 0.35 | – | – | –
CG17575 | 1 | 0.3 | 0.55 | – | – | –
CG31441 | 1 | 0.49 | 0.25 | – | – | –
CG1421 | 1 | -0.05 | 0.26 | – | – | –
ImpL2 | 1 | 0.76 | 0.54 | – | – | –
Ugt37A2 | 1 | 0.05 | 0.25 | – | – | –
chif | 1 | -0.97 | -0.22 | – | – | –
AANATL5 | 1 | 0.47 | 0.24 | – | – | –
CG16986 | 1 | 0.49 | 0.26 | – | – | –
RpL17 | 1 | -3.4 | -3.03 | – | – | reduced secretion
CG30039 | 1 | 0.01 | -0.66 | – | – | –
Arp10 | 1 | 0.03 | 0.26 | – | – | –
CG42390 | 1 | -0.39 | -0.33 | – | – | –
Apl | 1 | 0.29 | 0.09 | – | – | –
btl | 1 | 0.2 | 0.29 | – | – | –
tj | 1 | -0.14 | 0.01 | – | – | –
kibra | 1 | 0.49 | 0.81 | – | – | –
kibra | 2 | -3.97 | -3.85 | – | – | reduced secretion
atilla | 1 | 0.17 | 0.09 | – | – | –
CG8329 | 1 | 0.24 | 0.22 | – | – | –
CG15399 | 1 | 0.21 | 0.33 | – | – | –
Nsun2 | 1 | 0.35 | 0.43 | -0.21 | -1.14 | –
CG6136 | 1 | 0.16 | 0.25 | – | – | –
Papst2 | 1 | 0.38 | 0.37 | – | – | –
Tektin-A | 1 | 0.2 | 0.28 | – | – | –
Pfdn1 | 1 | 0.26 | 0.12 | – | – | –
CG17124 | 1 | 0.17 | 0.47 | – | – | –
CG30110 | 1 | -0.24 | 0.37 | – | – | –
ecd | 1 | -0.47 | -0.04 | – | – | –
Pdha | 1 | 0.25 | 0.22 | – | – | –
CaMKII | 1 | 0.69 | 0.37 | – | – | –
CG32668 | 1 | -0.05 | 0.4 | – | – | –
Or46a + asRNA:CR43467 | 1 | 0.37 | 0.4 | – | – | –
Or46a + asRNA:CR43467 | 2 | 0.27 | 0.24 | – | – | –
Or46a + asRNA:CR43467 | 3 | 1.59 | 0.14 | – | – | –
PPYR1 | 1 | 0.44 | 0.55 | – | – | –
CG42507 + Trl | 1 | 0.47 | 0.44 | – | – | –
CG42507 + Trl | 2 | -2.28 | -1.12 | – | – | reduced secretion

6 of these entries in another layout.
RpL17 → z-score, replicate 1: -3.4; z-score, replicate 2: -3.03; phenotype, replicate 1: reduced secretion
CG30039 → z-score, replicate 1: 0.01; z-score, replicate 2: -0.66
Arp10 → z-score, replicate 1: 0.03; z-score, replicate 2: 0.26
CG42390 → z-score, replicate 1: -0.39; z-score, replicate 2: -0.33
Apl → z-score, replicate 1: 0.29; z-score, replicate 2: 0.09
btl → z-score, replicate 1: 0.2; z-score, replicate 2: 0.29

The list goes on.
Target gene | reagent no. | z-score, replicate 1 | z-score, replicate 2 | z-score, replicate 3 | z-score, replicate 4 | phenotype, replicate 1
His4:CG33883 + His4:CG33889 + His4:CG33899 + 20 more | 1 | -1.6 | -0.84 | – | – | –
nop5 | 1 | -0.23 | -0.09 | – | – | –
CG13920 | 1 | 0.2 | 0.15 | – | – | –
Lztr1 | 1 | 0.53 | 0.58 | – | – | –
Lztr1 | 2 | 0.32 | 0.4 | – | – | –
Cpr65Ea | 1 | 0.35 | 0.32 | – | – | –
CG8303 | 1 | 0.06 | 0.06 | – | – | –
CG33234 | 1 | 0.13 | 0.29 | – | – | –
CG6607 | 1 | 0.3 | 0.34 | – | – | –
asRNA:CR43299 + CG8119 | 1 | 0.2 | 0.38 | – | – | –
CCAP-R | 1 | 0.17 | 0.3 | – | – | –
CCAP-R | 2 | 0.2 | 0.14 | – | – | –
CG5071 | 1 | 0.26 | 0.3 | – | – | –
CG5071 | 2 | 0.3 | -7.19 | – | – | reduced secretion
CG1620 | 1 | 0.23 | 0.06 | – | – | –
tHMG1 | 1 | -0.24 | 0.18 | – | – | –
CG15712 | 1 | 0.12 | 0.08 | – | – | –
CG9915 | 1 | -0.18 | -0.11 | – | – | –
CG9915 | 2 | 0.96 | 0.5 | – | – | –
Stlk | 1 | -0.22 | 0.04 | – | – | –
CG14331 | 1 | 0.01 | -0.02 | – | – | –
ACXE | 1 | -0.2 | -0.26 | – | – | –
spirit | 1 | 0.29 | 0.39 | – | – | –
CG5255 | 1 | 0.14 | -0.24 | – | – | –
Ir94f | 1 | 0.37 | 0.31 | – | – | –
Nepl11 | 1 | 0.04 | 0.21 | -0.02 | 0.27 | –
CG9902 | 1 | -0.23 | 0.2 | – | – | –
CG13245 | 1 | 0.39 | 0.26 | – | – | –
ocm | 1 | 0.92 | 0.37 | – | – | –
Tep2 | 1 | 0.64 | 0.33 | – | – | –
Tep2 | 2 | 0.38 | 0.38 | – | – | –
CG14655 | 1 | 0.95 | 0.55 | – | – | –
CG6044 | 1 | 0.56 | 0.35 | – | – | –
